# Results as given in the supplement of paper PMC10849652.
# Chains of the proteins cited; added tags and fusions are not shown. Lines headed by an entry give the natural chain unless they say otherwise; changes in a name come on top.
# UniProt Q9H707: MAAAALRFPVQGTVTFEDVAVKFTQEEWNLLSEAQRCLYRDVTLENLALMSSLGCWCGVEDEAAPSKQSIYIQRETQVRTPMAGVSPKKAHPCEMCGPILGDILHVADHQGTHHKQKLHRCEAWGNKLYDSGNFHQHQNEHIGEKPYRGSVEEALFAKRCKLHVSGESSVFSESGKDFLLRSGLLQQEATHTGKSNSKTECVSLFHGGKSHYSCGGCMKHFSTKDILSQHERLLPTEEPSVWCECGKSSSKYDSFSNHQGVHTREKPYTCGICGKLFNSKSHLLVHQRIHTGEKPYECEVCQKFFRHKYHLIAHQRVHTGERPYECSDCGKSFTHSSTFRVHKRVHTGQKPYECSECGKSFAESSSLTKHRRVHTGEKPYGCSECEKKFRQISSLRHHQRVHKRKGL
# UniProt Q6V9R5: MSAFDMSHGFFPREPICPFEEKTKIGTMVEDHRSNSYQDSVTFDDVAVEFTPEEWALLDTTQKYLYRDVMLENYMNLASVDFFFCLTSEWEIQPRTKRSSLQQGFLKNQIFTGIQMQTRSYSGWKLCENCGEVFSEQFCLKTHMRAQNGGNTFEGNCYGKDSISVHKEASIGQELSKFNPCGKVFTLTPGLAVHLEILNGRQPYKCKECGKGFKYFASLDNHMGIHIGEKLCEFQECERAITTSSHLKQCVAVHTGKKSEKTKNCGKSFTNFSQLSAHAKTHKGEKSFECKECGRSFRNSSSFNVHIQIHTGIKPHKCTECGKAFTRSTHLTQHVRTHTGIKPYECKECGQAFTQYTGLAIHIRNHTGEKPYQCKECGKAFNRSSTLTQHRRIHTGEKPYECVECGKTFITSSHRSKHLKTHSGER
# UniProt Q5BKZ1: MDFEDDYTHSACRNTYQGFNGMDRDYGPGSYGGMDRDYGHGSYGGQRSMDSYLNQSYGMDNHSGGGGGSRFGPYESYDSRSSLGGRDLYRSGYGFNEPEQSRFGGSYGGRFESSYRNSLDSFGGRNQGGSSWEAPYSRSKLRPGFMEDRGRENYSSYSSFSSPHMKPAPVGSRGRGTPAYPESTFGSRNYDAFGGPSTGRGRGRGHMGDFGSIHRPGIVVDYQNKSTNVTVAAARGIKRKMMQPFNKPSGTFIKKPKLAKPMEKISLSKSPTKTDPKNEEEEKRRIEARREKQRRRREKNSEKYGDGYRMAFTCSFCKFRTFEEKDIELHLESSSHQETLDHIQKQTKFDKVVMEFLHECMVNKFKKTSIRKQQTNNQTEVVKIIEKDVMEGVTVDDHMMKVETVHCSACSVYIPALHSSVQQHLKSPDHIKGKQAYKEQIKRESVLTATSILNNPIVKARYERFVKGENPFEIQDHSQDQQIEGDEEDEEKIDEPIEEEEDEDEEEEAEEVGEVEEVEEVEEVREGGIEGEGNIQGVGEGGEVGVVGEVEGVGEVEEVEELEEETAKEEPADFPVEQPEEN
# UniProt Q9BU19: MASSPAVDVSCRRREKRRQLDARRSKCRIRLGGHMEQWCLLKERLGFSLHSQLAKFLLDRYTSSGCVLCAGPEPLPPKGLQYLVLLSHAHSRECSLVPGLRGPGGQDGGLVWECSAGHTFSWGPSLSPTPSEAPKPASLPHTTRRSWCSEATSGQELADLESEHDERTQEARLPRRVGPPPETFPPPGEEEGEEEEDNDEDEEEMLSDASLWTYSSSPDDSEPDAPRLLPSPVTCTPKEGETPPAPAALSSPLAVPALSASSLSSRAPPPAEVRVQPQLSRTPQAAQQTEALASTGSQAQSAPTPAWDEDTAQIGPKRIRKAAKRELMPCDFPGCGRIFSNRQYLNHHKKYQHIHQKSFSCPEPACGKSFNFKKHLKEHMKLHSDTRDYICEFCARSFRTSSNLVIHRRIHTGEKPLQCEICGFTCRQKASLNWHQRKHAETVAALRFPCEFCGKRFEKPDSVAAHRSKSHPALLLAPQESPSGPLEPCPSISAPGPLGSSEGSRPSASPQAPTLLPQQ
# UniProt Q9UDW3: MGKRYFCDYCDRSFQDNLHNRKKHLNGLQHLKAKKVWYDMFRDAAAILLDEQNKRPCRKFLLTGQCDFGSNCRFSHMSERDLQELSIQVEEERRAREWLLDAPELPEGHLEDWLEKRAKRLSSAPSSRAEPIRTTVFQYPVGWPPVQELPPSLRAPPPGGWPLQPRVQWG
# UniProt Q9Y2X9: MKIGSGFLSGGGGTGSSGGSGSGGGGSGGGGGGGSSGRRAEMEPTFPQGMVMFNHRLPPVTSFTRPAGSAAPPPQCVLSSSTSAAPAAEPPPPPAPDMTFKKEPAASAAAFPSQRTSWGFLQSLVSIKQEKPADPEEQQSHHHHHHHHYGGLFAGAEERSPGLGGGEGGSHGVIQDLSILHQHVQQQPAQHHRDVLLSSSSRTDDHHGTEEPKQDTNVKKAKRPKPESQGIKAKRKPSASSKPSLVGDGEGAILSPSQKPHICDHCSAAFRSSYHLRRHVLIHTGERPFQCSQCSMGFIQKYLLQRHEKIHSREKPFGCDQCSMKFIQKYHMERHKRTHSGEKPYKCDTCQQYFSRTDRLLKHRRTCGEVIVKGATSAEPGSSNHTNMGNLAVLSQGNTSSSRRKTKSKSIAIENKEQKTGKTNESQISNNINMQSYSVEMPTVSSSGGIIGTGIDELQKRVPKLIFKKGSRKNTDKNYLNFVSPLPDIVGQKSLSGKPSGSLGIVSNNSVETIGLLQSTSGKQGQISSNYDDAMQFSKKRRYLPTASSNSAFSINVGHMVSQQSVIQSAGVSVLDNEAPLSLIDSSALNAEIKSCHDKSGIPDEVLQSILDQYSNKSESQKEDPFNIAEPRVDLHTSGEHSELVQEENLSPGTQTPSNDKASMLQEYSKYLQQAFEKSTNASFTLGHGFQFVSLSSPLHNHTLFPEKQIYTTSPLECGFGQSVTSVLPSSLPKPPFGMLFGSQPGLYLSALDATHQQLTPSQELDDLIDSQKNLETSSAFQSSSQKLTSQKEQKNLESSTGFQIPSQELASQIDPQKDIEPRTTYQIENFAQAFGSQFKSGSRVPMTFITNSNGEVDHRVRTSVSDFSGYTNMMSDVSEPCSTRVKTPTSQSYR
# UniProt Q8IYI8: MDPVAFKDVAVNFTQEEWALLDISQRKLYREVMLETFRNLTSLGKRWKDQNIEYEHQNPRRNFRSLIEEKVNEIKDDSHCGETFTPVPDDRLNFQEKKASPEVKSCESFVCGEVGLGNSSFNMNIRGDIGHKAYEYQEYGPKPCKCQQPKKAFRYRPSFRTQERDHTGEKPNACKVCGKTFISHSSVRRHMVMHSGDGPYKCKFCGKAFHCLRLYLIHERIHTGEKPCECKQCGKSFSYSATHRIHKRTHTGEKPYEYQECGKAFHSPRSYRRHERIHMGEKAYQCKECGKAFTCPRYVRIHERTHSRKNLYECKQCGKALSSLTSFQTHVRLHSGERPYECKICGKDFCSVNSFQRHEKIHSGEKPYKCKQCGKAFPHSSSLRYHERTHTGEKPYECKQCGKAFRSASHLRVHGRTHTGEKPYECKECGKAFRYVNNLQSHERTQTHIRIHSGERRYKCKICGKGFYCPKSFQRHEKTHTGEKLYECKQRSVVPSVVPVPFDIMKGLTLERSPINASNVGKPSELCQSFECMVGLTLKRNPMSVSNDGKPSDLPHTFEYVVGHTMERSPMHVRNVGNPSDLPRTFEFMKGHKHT
# UniProt Q9UID6: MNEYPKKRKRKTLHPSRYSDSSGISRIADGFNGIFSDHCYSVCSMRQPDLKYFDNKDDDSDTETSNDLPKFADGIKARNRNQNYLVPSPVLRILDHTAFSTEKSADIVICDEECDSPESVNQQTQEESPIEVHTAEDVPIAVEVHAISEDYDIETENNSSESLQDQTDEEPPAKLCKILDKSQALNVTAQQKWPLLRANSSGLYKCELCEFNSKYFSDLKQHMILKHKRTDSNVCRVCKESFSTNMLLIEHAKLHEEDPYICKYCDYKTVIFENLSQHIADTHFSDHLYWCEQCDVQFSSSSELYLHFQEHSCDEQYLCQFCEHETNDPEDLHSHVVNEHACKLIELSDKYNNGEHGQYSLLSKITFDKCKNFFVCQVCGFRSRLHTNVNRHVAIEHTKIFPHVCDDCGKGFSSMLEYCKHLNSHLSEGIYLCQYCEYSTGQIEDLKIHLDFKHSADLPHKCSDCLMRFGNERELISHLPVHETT
# UniProt Q96IQ9: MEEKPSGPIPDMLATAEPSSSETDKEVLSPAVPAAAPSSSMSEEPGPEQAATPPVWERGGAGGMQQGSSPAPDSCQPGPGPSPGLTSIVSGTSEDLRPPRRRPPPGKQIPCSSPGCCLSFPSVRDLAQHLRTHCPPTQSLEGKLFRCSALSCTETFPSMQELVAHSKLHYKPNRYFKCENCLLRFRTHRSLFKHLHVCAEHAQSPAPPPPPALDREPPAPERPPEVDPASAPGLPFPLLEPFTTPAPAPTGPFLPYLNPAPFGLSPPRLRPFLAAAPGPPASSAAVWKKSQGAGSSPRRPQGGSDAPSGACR
# UniProt Q6IQ21: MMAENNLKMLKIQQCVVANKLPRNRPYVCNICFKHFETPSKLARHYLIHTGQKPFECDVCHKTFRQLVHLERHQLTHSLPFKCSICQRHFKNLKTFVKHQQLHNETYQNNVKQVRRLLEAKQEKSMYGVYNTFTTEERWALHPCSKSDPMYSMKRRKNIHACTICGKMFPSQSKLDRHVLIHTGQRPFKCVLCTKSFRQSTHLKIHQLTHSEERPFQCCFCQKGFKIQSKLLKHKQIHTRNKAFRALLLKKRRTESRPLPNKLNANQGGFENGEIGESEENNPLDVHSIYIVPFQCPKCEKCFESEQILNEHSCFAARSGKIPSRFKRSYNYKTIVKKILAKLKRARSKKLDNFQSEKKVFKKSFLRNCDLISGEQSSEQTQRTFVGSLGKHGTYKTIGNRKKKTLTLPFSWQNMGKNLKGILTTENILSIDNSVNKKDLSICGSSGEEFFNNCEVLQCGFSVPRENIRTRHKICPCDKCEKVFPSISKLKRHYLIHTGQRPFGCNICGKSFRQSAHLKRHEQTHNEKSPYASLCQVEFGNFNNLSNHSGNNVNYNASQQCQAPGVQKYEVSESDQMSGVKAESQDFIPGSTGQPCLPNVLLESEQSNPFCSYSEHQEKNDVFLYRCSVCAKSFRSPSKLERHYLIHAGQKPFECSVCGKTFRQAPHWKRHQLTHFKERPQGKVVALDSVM
# UniProt Q99676: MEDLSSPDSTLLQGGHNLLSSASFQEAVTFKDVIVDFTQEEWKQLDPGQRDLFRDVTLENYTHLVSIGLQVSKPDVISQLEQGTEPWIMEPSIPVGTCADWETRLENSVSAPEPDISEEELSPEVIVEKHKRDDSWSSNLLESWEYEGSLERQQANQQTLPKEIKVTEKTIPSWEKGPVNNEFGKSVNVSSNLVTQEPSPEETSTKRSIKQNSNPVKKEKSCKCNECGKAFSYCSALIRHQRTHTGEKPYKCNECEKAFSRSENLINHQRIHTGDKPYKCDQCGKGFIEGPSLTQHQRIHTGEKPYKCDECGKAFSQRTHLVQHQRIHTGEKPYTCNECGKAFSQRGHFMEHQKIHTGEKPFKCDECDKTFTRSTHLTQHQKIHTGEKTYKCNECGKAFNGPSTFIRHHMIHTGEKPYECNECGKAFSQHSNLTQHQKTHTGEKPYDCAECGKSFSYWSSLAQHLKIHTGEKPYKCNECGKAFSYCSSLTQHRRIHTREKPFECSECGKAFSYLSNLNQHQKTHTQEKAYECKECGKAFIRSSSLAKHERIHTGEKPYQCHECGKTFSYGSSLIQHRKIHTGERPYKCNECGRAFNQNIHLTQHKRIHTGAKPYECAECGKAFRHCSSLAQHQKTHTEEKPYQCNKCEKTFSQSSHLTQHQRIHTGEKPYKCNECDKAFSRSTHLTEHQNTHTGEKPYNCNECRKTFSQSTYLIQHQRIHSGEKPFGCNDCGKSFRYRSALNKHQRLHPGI
# UniProt Q9Y2D9: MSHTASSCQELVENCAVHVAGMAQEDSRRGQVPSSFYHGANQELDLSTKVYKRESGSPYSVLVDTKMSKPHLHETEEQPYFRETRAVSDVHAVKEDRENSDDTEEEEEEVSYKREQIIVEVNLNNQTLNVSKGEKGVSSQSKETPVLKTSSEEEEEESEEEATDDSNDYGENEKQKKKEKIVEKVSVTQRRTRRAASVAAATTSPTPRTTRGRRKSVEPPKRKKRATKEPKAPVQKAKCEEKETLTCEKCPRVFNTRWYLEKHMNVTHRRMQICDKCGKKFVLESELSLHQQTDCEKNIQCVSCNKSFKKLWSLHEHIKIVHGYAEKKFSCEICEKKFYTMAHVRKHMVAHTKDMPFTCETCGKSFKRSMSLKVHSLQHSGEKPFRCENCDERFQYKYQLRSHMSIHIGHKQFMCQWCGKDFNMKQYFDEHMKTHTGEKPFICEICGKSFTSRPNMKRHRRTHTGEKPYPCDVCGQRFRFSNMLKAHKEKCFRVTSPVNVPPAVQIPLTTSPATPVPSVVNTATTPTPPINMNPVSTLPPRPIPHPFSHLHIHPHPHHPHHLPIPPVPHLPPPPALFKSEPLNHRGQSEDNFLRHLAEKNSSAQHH
# This is one part of the list.
# How the values were obtained:
# Assay in all cases: log2 fold change, soluble protein after heating vs DMSO (PISA); higher = thermal stabilisation; K562 lysate, 10 uM; active = over 0.2 and 3.5 SD of the protein, either way, in both replicates (recomputed)
# ralimetinib = compound: CC(C)(C)Cn1c(N)nc2ccc(-c3[nH]c(C(C)(C)C)nc3-c3ccc(F)cc3)nc21 [ralimetinib]
# Method in brief: (§1)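 Pellets of K562 cells were dounce-homogenised in PBS pH 7.4 with 1 mM MgCl2, and the crude extract was held at 1 mg/mL protein for a 30 min treatment with 10 μM compound. Aliquots were heated for 3 min over 48°C-58°C and pooled before NP-40 was added to 0.5% at 4°C. The supernatant from 21,000xg for 90 min was quantified by TMTpro 16plex LC-MS/MS with channel sums equalised. Values are reported from duplicates as log-two fold change in thermal stability relative to solvent controls.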
# [1] = compound: CC(C)(O)CC(=O)NCCn1ccc2ncnc(Nc3ccc(Oc4cccc(C(F)(F)F)c4)c(Cl)c3)c21
# Method in brief: as §1
# [2] = compound: CC1=C(C(CC(=O)N1)C2=CC=C(C=C2)C(F)(F)F)C(=O)NC3=C(C=C4C(=C3)C=NN4)F
# Method in brief: as §1
# [3] = compound: CC1=C(C=C(C=C1)NC(=O)C2=CC(=CC=C2)N(C)C)NC(=O)C3=CC=C(C=C3)O
# Method in brief: as §1
# [4] = compound: CC1=C(C=C(C=C1)NC(=O)C2=CC(=CC=C2)C(C)(C)C#N)NC3=CC4=C(C=C3)N=CN(C4=O)C
# Method in brief: as §1
# [5] = compound: CC(C)C1=C2N=C(C=C(N2N=C1)NCC3=CC=CC=C3)NCCCCCCN
# Method in brief: as §1
# [6] = compound: CC1=C(C2=C(C=C1)C(=O)C3=CC=CC=C3N2CCCN)C
# Method in brief: as §1
target,measurement,setting,value
ZNF746 isoform 2 (UniProt Q6NUN9),log2 fold change,ralimetinib,inactive: -0.248
same,log2 fold change,[1],inactive: -0.032
same,log2 fold change,[2],inactive: -0.124
same,log2 fold change,[3],inactive: 0.005
ZSCAN26 (UniProt Q16670),log2 fold change,[4],inactive: 0.007
ZNF552 (UniProt Q9H707),log2 fold change,[2],inactive: 0.135
ZMYND19 (UniProt Q96E35),log2 fold change,[5],inactive: -0.102
same,log2 fold change,[4],inactive: -0.109
ZNF562 (UniProt Q6V9R5),log2 fold change,[6],inactive: -0.116
ZGRF1 (UniProt Q86YA3),log2 fold change,ralimetinib,inactive: -0.022
same,log2 fold change,[1],inactive: -0.127
same,log2 fold change,[6],inactive: 0.023
same,log2 fold change,[4],inactive: -0.026
same,log2 fold change,[3],inactive: 0.044
ZRSR2 (UniProt Q15696),log2 fold change,[4],inactive: 0.001
ZNF326 (UniProt Q5BKZ1),log2 fold change,ralimetinib,inactive: -0.033
same,log2 fold change,[1],inactive: 0.008
same,log2 fold change,[5],inactive: 0.053
same,log2 fold change,[2],inactive: -0.065
same,log2 fold change,[6],inactive: 0.014
same,log2 fold change,[4],inactive: 0.015
same,log2 fold change,[3],inactive: 0.005
ZNF595 (UniProt Q8IYB9),log2 fold change,ralimetinib,inactive: 0.19
same,log2 fold change,[1],inactive: 0.104
same,log2 fold change,[4],inactive: -0.037
same,log2 fold change,[3],inactive: -0.086
ZNF692 isoform 5 (UniProt Q9BU19),log2 fold change,[6],inactive: -0.207
ZMAT5 (UniProt Q9UDW3),log2 fold change,[5],inactive: -0.032
ZNF281 (UniProt Q9Y2X9),log2 fold change,ralimetinib,inactive: -0.055
same,log2 fold change,[1],inactive: 0.081
same,log2 fold change,[5],inactive: 0.039
same,log2 fold change,[6],inactive: -0.008
same,log2 fold change,[4],inactive: -0.081
same,log2 fold change,[3],inactive: -0.041
ZNF440 (UniProt Q8IYI8),log2 fold change,[2],inactive: 0.211
ZNF639 (UniProt Q9UID6),log2 fold change,ralimetinib,inactive: 0.078
same,log2 fold change,[1],inactive: -0.09
same,log2 fold change,[5],inactive: -0.058
same,log2 fold change,[2],inactive: 0.012
same,log2 fold change,[6],inactive: -0.022
same,log2 fold change,[4],inactive: 0.022
same,log2 fold change,[3],inactive: -0.093
ZNF414 isoform 2 (UniProt Q96IQ9),log2 fold change,ralimetinib,inactive: 0.103
same,log2 fold change,[1],inactive: -0.031
same,log2 fold change,[4],inactive: 0.02
same,log2 fold change,[3],inactive: -0.269
ZNF770 (UniProt Q6IQ21),log2 fold change,[4],inactive: -0.131
ZNF184 (UniProt Q99676),log2 fold change,ralimetinib,inactive: 0.034
same,log2 fold change,[1],inactive: -0.024
same,log2 fold change,[2],inactive: 0.148
same,log2 fold change,[6],inactive: -0.038
same,log2 fold change,[4],inactive: -0.039
same,log2 fold change,[3],inactive: -0.007
ZNF652 (UniProt Q9Y2D9),log2 fold change,[4],inactive: 0.042
ZSCAN25 (UniProt Q6NSZ9),log2 fold change,[5],inactive: -0.068
same,log2 fold change,[6],inactive: 0.056
"ZNF280A, A0A0G2JN84",log2 fold change,[4],inactive: 0.163
ZNF146 (UniProt Q15072),log2 fold change,[6],inactive: -0.187

# Given with tabs: part of the list above.
target	measurement	setting	value
ZGRF1 (UniProt Q86YA3)	log2 fold change	[6]	inactive: 0.023
ZNF184 (UniProt Q99676)	log2 fold change	[4]	inactive: -0.039

# Fetched one by one from the entries so far (2):
target,measurement,setting,value
ZSCAN25 (UniProt Q6NSZ9),log2 fold change,[6],inactive: 0.056
ZNF414 isoform 2 (UniProt Q96IQ9),log2 fold change,[1],inactive: -0.031
